Measurements taken from publication PMC9909879.
For at least one entry, the source does not settle the construct or the ends of the probe. Where cells or extracts were used, other partners may take part. No signal at the amounts used counts as a negative. At least one verdict rests on a figure or table, not on a statement of the authors.

The chains behind the UniProt entries cited, without tags or fusion partners. Residues count along the entry.
UniProt Q13308, 31-1070: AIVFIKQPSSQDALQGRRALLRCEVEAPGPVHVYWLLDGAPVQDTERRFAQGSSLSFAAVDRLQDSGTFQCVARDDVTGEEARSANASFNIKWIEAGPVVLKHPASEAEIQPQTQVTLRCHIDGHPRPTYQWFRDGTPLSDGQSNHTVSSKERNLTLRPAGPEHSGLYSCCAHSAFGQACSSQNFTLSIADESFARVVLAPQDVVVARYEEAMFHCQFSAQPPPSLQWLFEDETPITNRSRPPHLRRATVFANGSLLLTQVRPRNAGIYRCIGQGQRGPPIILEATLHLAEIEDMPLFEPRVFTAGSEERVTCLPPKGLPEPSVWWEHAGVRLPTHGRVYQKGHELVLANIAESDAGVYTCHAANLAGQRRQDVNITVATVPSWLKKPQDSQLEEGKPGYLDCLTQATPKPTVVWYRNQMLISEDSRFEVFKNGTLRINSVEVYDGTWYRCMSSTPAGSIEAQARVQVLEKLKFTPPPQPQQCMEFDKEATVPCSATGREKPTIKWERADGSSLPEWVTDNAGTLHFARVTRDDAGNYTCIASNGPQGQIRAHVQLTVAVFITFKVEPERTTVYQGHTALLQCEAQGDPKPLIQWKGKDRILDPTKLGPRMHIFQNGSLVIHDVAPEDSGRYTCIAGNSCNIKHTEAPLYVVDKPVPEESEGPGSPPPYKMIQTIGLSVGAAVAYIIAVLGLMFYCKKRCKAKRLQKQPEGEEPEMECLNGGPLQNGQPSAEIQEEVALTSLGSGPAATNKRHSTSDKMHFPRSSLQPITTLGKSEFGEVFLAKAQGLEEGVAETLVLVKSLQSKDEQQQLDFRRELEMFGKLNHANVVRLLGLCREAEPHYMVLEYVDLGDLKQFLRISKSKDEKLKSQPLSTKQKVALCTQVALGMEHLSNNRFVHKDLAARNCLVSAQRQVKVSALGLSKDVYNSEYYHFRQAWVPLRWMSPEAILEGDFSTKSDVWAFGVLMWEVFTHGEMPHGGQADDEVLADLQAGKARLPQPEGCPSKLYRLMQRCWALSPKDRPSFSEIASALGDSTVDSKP

Target: PTK-7 receptor (UniProt Q13308)
Assay: flow cytometry (cell binding/uptake)
Conditions: on AuNPs-DNS, 1 nM particles, MCF-7 cells, 6 h, 5'-SH, 1 nM Cy5-labeled AuNPs-DNS with cells in a glass dish, 37 °C, salt and pH not given, protein on the cell surface

Sequence | binding result (includes internalization, PBS wash x3, medium, label: 3'-Cy5, single-stranded DNA) | binding result (negligible Cy5 fluorescence, PBS wash x3, medium, label: 3'-Cy5, single-stranded DNA)
TTTTTTTTTTTTTTTTTTTTCACTACAGAGGTTGCGTCTGTCCCACGTTGTCATGGGGGGTTGGCCTG [AptamerCy5 (Sgc8)] | binds | 
TTTTTTTTTTTTTTTTTTTTGATGCAATTCCACTAATCAACCGTCCAAATTTCAGGTGATTACTGCAT [ControlCy5 (random sequence)] |  | no binding
